# According to PubChem BioAssay AID445 (National Center for Advancing Translational Sciences (NCATS), 2006):
# Some of the results follow. Shown are side measurements of this screen, not its main read-out; they come without a call. Most of these compounds were active or inconclusive in the main read-out, so they are no random draw. Words in brackets tell the shape of the fitted curve; partial curves, single points and poor fits give uncertain potencies.
# Assay: IkB Signaling
# Conditions: ABC-DLBCL IkBa-CBG/CBR dual luciferase ratio (green luciferase fused to IkBa over red control in OCI-Ly3 lymphoma cells), 4 h
# Summary of the method: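 Curves were fitted separately to fusion (green), unfused (red) and ratio luminescence, then classed by r2, magnitude and activity. Cells: OCI-Ly3, 4 h compound plus doxycycline at 37C; 10 uM MG-132 defined full response.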
# [1] = measured here: control luc red channel unless noted
compound,measurement,setting,value
COc1cccc(NC(c2nnc(-c3ccccc3)o2)c2ccc(F)cc2Cl)c1 (stereo not given),AC50,[1],"12.6 µM [falling, partial curve]"
COc1ccc(C(=O)NCC(c2cccnc2)N2CCN(c3ccccc3OC)CC2)cc1 (stereo not given),AC50,[1],"25.1 µM [falling, single point]"
Cc1ccc(NC(=O)C(=O)NCC(c2cccnc2)N2CCN(C)CC2)cc1 (stereo not given),AC50,[1],"20 µM [falling, partial curve]"
O=C(NCc1ccco1)c1ccc2c(=O)n(Cc3ccco3)c(SCC(=O)N3CCCC3)nc2c1,AC50,[1],"10 µM [falling, partial curve]"
CCn1c2c(c(=O)n3ncc(C(=O)Nc4ccc(C(=O)OC)cc4)c13)CN(Cc1ccc(OC)cc1)CC2,AC50,[1],"12.6 µM [falling, single point]"
COc1ccc(C)cc1NC(=O)c1ccc2nc(Cc3ccccc3)oc2c1,AC50,[1],"1 µM [falling, partial curve]"
COc1ccc(N2CCN(C(=O)CSc3nc4ccccc4nc3Cc3ccc(Cl)cc3)CC2)cc1,AC50,[1],"5.01 µM [falling, partial curve]"
CCOc1ccc(OCc2ccc(C(=O)Nc3cccc(C)n3)o2)cc1,AC50,[1],"12.6 µM [falling, partial curve]"
Cc1c(C(=O)NCCc2ccc(Cl)cc2)cccc1-n1cnc2cccnc21,AC50,[1],"15.8 µM [falling, partial curve, poor fit]"
COc1ccc(N2CCN(C(=O)c3cc(-c4ccc(C)c(F)c4)on3)CC2)cc1,AC50,[1],"25.1 µM [falling, partial curve]"
CCn1c2ccccc2c2cc(CN3CCN(Cc4ccc(OC)c(OC)c4)CC3)ccc21,AC50,[1],"15.8 µM [falling, partial curve]"
COc1ccc(Cn2c(=O)[nH]c3cc(C(=O)N4CCN(Cc5ccccc5)CC4)ccc3c2=O)cc1,AC50,[1],"1.26 µM [falling, full curve, poor fit]"
COc1cc(OC)c(OC)cc1CNc1cc(C)ccc1OC,AC50,[1],"10 µM [falling, partial curve]"
CCOC(=O)Cn1c(=O)n(CC2CCCO2)c2nc(-c3ccccc3Cl)nc(C(N)=O)c21 (stereo not given),AC50,[1],"3.16 µM [falling, full curve]"
O=c1c(N2CCc3ccccc3C2)csc2ccc(F)cc12,AC50,[1],"3.98 µM [falling, partial curve]"
CCOc1ccccc1NC(=O)C1=C(C)Nc2ncnn2C1c1sccc1C (stereo not given),AC50,[1],"25.1 µM [falling, partial curve]"
c1ccc(CSc2nnc(-c3ccco3)c(-c3ccco3)n2)cc1,AC50,[1],"25.1 µM [rising, partial curve] [measured here: IkB-luc green channel]"
Cc1ccc(CNC(=O)c2c(-c3ccc(Br)cc3)noc2C)o1,AC50,[1],"31.6 µM [falling, single point]"
O=C(CCCn1c(=O)c2cccn2c2cccnc21)Nc1ccccc1C(F)(F)F,AC50,[1],"2.51 µM [rising, full curve]"
COc1ccccc1N1CCN(C(=O)c2cc(-c3cccs3)on2)CC1,AC50,[1],"31.6 µM [falling, partial curve]"
Fc1ccccc1N1CCN(c2nnc(C(F)(F)F)c3nnn(Cc4ccccc4)c23)CC1,AC50,[1],"39.8 µM [falling, single point]"
CN(C)S(=O)(=O)N(CC(=O)Nc1ccc(Br)cc1F)c1ccccc1,AC50,[1],"39.8 µM [falling, single point]"
COc1ccc(C)cc1NC(=O)C1CCCN(S(=O)(=O)c2ccc3c(c2)CCCN3C(C)=O)C1 (stereo not given),AC50,[1],"0.126 µM [falling, full curve, poor fit]"
C=CCn1c(SCC(=O)Nc2cccc(OC)c2)nnc1-c1cccnc1,AC50,[1],"7.94 µM [falling, partial curve]"
CCCn1c(CN2CCN(C(=O)c3ccco3)CC2)nc2c1c(=O)n(C)c(=O)n2C,AC50,measured here: IkB-luc green channel,"31.6 µM [rising, partial curve]"
same,AC50,measured here: control luc red channel,"6.31 µM [falling, partial curve]"
CCC(C)(C)NC(=O)C1CCC(CNS(=O)(=O)c2ccc3c(c2)CC(C)N3C(C)=O)CC1 (stereo not given),AC50,[1],"20 µM [falling, single point]"
O=C1CCCC(O)=C1C(C#Cc1ccccc1)C1=C(O)CCCC1=O,AC50,[1],"25.1 µM [falling, partial curve]"
COc1cccc(NC(=O)Cn2cnc3sc(C)c(S(=O)(=O)N4CCN(C)CC4)c3c2=O)c1,AC50,[1],"31.6 µM [falling, partial curve]"
CCOc1ccccc1NC(=O)c1cc(CC(C)C)oc1C,AC50,[1],"31.6 µM [falling, partial curve]"
Cc1ccccc1Cn1c(=O)n(Cc2ccco2)c(=O)c2oc3ccccc3c21,AC50,[1],"0.0251 µM [rising, full curve]"
CCN(CC)S(=O)(=O)c1ccc(/C(O)=C(\C#N)c2nc3ccccc3n2C)cc1,AC50,[1],"25.1 µM [falling, partial curve]"
O=C(c1ccc2c(c1)CCN2S(=O)(=O)c1ccc(Cl)cc1)N1CCN(c2ccccc2F)CC1,AC50,[1],"12.6 µM [falling, partial curve]"
Cc1nn(-c2ccccc2)c2c1C(O)n1c(nc3ccccc31)S2 (stereo not given),AC50,[1],"6.31 µM [falling, partial curve]"
COc1ccc(S(=O)(=O)N2CCC(NC(=O)Nc3ccc(C)cc3)CC2)cc1,AC50,[1],"31.6 µM [falling, single point]"
CN(C)c1ccc(CN2CCc3nc(N4CCN(c5ccccn5)CC4)ncc3C2)cc1,AC50,[1],"31.6 µM [falling, partial curve]"
Cc1nc2c(c(SCC(=O)Nc3ccccc3C(F)(F)F)n1)CCC2,AC50,[1],"31.6 µM [falling, single point]"
Cc1cc(OC(C)C(=O)N2CCN(CCc3ccccn3)CC2)ccc1Cl (stereo not given),AC50,[1],"20 µM [falling, partial curve]"
CCOc1ccccc1N1CC(c2nc3ccccc3n2CCCOc2ccccc2)CC1=O (stereo not given),AC50,[1],"25.1 µM [falling, partial curve]"
CC(C)C(=O)NC1CC(=O)N(c2ccc3c(c2)OCCO3)C1 (stereo not given),AC50,[1],"1.26 µM [rising, full curve, poor fit]"

# An excerpt of these results, with tabs.
compound	measurement	setting	value
COc1cc(OC)c(OC)cc1CNc1cc(C)ccc1OC	AC50	[1]	10 µM [falling, partial curve]
CCOC(=O)Cn1c(=O)n(CC2CCCO2)c2nc(-c3ccccc3Cl)nc(C(N)=O)c21 (stereo not given)	AC50	[1]	3.16 µM [falling, full curve]
O=c1c(N2CCc3ccccc3C2)csc2ccc(F)cc12	AC50	[1]	3.98 µM [falling, partial curve]
